Laboratory results: paper doi:10.1101/2025.01.30.635804, “Emergence of specific binding and catalysis from a designed generalist binding protein” (bioRxiv, 2025)

Test system: ABLE
Assay: Crystallographic fragment screening of ABLE crystals (PanDDA)
Format: binding
Conditions: fragment soaked (10 mM) into ABLE crystals, refined multi-state model

Compared with `O=C(O)C(c1ccccc1)c1ccccc1` [ZINC000000034687], `O=C(O)CCc1ccccc1` [ZINC000000154564] is lower in Refined ligand occupancy: 82% for the first, 40% for the second.

First: O=C(O)c1cc2ccccc2o1 [ZINC000000053963]
Second: Nc1ccc2oc(=O)ccc2c1 [ZINC000001612349]
The Refined ligand occupancy of the first is lower: 22% for the first, 42% for the second.

Compared with `O=c1ccc2ccc(O)cc2o1` [ZINC000000058111, 7-hydroxycoumarin], `O=c1ccc2ccccc2[nH]1` [ZINC000008579298] is lower in Refined ligand occupancy: 52% for the first, 42% for the second.

First: Oc1ccc(-n2ccnc2)cc1 [ZINC000000066090]
Second: O=C(c1ccncc1)c1ccc(F)cc1 [ZINC000002583439]
The Refined ligand occupancy of the first is higher: 38% for the first, 24% for the second.

Compared with `Cl.NCCc1c[nH]c2ccc(F)cc12` [ZINC000000077278], `N#CCc1c[nH]c2ccc(Cl)cc12` [ZINC000016697555] is higher in Refined ligand occupancy: 36% for the first, 70% for the second.

Going from `O=C(O)c1cc2sccc2s1` [ZINC000000107891] to `Nc1ccc(F)cc1C(=O)O` [ZINC000000165667], the Refined ligand occupancy rises from 34% to 48%.

Going from `CCOC(=O)c1c(C)n[nH]c1C` [ZINC000000109930] to `Cc1cc(C)nc(N)n1` [ZINC000000163774], the Refined ligand occupancy falls from 82% to 22%.

Compared with `Cc1c(C(=O)O)cnn1-c1ccccc1` [ZINC000000158815], `Cn1ncc(C(=O)O)c1-c1ccccc1` [ZINC000000159056] is lower in Refined ligand occupancy: 86% for the first, 36% for the second.

Compared with `Nc1ccc2c(c1)S(=O)(=O)C=C2` [ZINC000000162015], `Nc1cccc(Oc2ccccn2)c1` [ZINC000012370416] is lower in Refined ligand occupancy: 62% for the first, 46% for the second.

First: Oc1ccc2c(c1)OCO2 [ZINC000000164504]
Second: OCc1cccc2c1OCCO2 [ZINC000004271832]
The Refined ligand occupancy of the first is higher: 76% for the first, 72% for the second.

First: O=C1CCc2cccc3c2N1CC3 [ZINC000000173360]
Second: O=C1CNc2ccc(C(F)(F)F)cc2N1 [ZINC000006657973]
The Refined ligand occupancy of the first is lower: 16% for the first, 74% for the second.

First: COc1ccc(S(N)(=O)=O)cc1 [ZINC000000270975]
Second: NS(=O)(=O)c1ccc(F)cc1 [ZINC000002571408]
The Refined ligand occupancy of the first is higher: 84% for the first, 44% for the second.

First: O=C(O)c1ccc(Br)cc1 [ZINC000000388063]
Second: O=C(O)Cc1c[nH]c2ccc(Br)cc12 [ZINC000000404314]
The Refined ligand occupancy of the first is lower: 40% for the first, 48% for the second.

First: Nc1cc(F)ccc1C(=O)O [ZINC000000389796]
Second: Cc1ccc2c(C(=O)O)c[nH]c2c1 [ZINC000020269197]
The Refined ligand occupancy of the first is lower: 90% for the first, 95% for the second.

First: CCc1ccc(S(N)(=O)=O)cc1 [ZINC000000403990]
Second: CCCc1ccc(S(N)(=O)=O)cc1 [ZINC000002941706]
The Refined ligand occupancy of the first is lower: 62% for the first, 76% for the second.

Compared with `Cc1ccccc1S(N)(=O)=O` [ZINC000002567980], `Cc1cc(CO)c2ccccc2n1` [ZINC000037405164] is higher in Refined ligand occupancy: 26% for the first, 38% for the second.

First: O=C(O)CCc1nc2cc(Cl)ccc2s1 [ZINC000004219237]
Second: O=C(O)c1cc2cc(Cl)sc2[nH]1 [ZINC000038866729]
The Refined ligand occupancy of the first is higher: 40% for the first, 28% for the second.

Going from `Nc1nc2ccc(Br)cc2s1` [ZINC000004774482] to `O=C1CSc2cc(C(=O)O)ccc2N1` [ZINC000098208711], the Refined ligand occupancy falls from 42% to 24%.

Going from `NS(=O)(=O)c1ncc[nH]1` [ZINC000039132637] to `FC(F)(F)c1ccc(OC2CCNCC2)nc1` [ZINC000042783023], the Refined ligand occupancy rises from 32% to 48%.
